From patent US6010876A, “Clavanins” (The Regents of the University of California, priority 1996, dated 2000)
At least one peptide structure holds a part that was inferred or is arguable (an end, a ring closure or a residue). No end group written: not given here.

Tests used:
Type in all cases: cell-based
[1] = test system: E. coli BAS 894; assay: radial diffusion assay, minimal bactericidal concentration; details: X-intercept of radial diffusion assay, pH 6.5
Method: (§1) In more detail, the filtrates (≈3.5 mg of protein by BCA) were concentrated to 2 ml by vacuum centrifugation in a Speed Vac Concentrator (Savant Instruments, Hicksville, N.Y.). Gel permeation chromatography was performed on a 1.2×65 cm BioGel P-10 gel permeation column with 5% acetic acid. Preparative continuous acid-urea PAGE electrophoresis was performed as described by Harwig, S. S. L. et al., Anal Biochem (1993) 208:382. Active fractions were pooled and purified by RP-HPLC a 4.6×250 mm Vydac C18 column, using various linear gradients of acetonitrile in 0.1% trifluoroacetic acid (TFA) or […],) heptafluorobutyric acid (HFBA). Throughout this multistep procedure, fractions were lyophilized, concentrated and tested for antimicrobial activity against Listeria monocytogenes strain EGD by a radial diffusion technique described in Lehrer, R. I. et al., J Immunol Methods (1991) 137:167. In these assays, the underlay gels contained 9 mM sodium phosphate and 1 mM sodium citrate buffer, 0.30 mg/ml of trypticase soy broth powder (BBL, Cockeysville, Md.) and […] at a final pH of 6.5.
(§2) In addition to Cecropin P1 and Magainin 1, the activity of Clavanin A(K) was also tested. Clavanin A(K) is identical to Clavanin A except that all of the histidine residues are replaced by lysine. […] The data are provided as minimal bacteriocidal concentrations expressed in μg/ml which are the X-intercepts of radial diffusion assays performed at pH 6.5 in an underlay that contained 10 mM buffer ([…]), 1% agarose and 0.3 mg trypticase soy powder/ml.

[2] = test system: K. pneumoniae 2270; assay: as above; details: X-intercept of radial diffusion assay, pH 6.5
Method: as §1, §2

[3] = test system: S. typhimurium 7953s; assay: as above; details: X-intercept of radial diffusion assay, pH 6.5
Method: as §1, §2

[4] = test system: E. coli mcr 106; assay: as above; details: X-intercept of radial diffusion assay, pH 6.5
Method: as §1, §2

[5] = test system: E. coli ML-35p; assay: radial diffusion assay; details: for minimal bacteriocidal concentration: E. coli ML-35p, X-intercept of radial diffusion assay, pH 6.5
Method: as §1, §2
The effect of pH on antimicrobial activity against several organisms was tested in a pH range wherein histidine becomes comparably charged to lysine. FIGS. 6-8 show the results for native or synthetic Clavanin A and synthetic Clavanin A(K) using defensin NP-2 as a control, with respect to L. monocytogenes, E. coli, and C. albicans respectively. The radial diffusion assays were conducted as described in Examples 1 and 3 above.

[6] = test system: E. coli ML-35p; assay: colony counting assay; details: peptide at 1.6 μg/ml, pH 6.5
[7] = test system: E. faecalis CDC 21 (VR); assay: radial diffusion assay, minimal bactericidal concentration; details: X-intercept of radial diffusion assay, pH 6.5
Method: as §1, §2

Substance | minimal bacteriocidal concentration [1] [µg/mL] | minimal bacteriocidal concentration [2] [µg/mL] | minimal bacteriocidal concentration [3] [µg/mL] | minimal bacteriocidal concentration [4] [µg/mL] | minimal bacteriocidal concentration [5] [µg/mL] | reduction of colony count [6] | antimicrobial activity, amide versus free-acid form ([5]; E. coli) | minimal bacteriocidal concentration [7] [µg/mL] | effect of salt on antimicrobial activity ([5]; E. coli, 100 mM NaCl added to the underlay gels)
GIGKFLHSAGKFGKAFVGEIMKS [Magainin 1, GI GKFLH SAGKF GKAFV GEI MKS, reference compound] | 1.3 | 1.2 | 1.1 | 0.92 | 1.2 | more than 2 log units | – | – | –
VFQFLGKIIHHVGNFVHGFSHVF [synthetic Clavanin A (free-acid)] | – | – | – | – | – | – | behaved similarly | – | –
VFQFLGKIIHHVGNFVHGFSHVF-NH2 [Clavanin A, VFQFLGKIIHHVGNFVHGFSHVF*] | – | – | 0.22 | 1.7 | 5.0 | – | behaved similarly | 1.7 | diminish but not to destroy the activity
VFQFLGKIIKKVGNFVKGFSKVF-NH2 [Clavanin A(K)] | – | – | 1.2 | 0.66 | 2.2 | – | – | – | –
